We go through 2 compounds from ChEMBL document CHEMBL1135998, “Identification of orally active, potent, and selective 4-piperazinylquinazolines as antagonists of the platelet-derived growth factor receptor tyrosine kinase family” (J Med Chem, 2002).

Data set [1] is described as follows: in vivo. Conditions: simiiformes, po, 5 mg/kg.
Data set [2] in a line: in vivo. Conditions: dog, po, 5 mg/kg.
Data set [3] in a line: in vivo. Conditions: rat, po, 5 mg/kg.
Data set [4] in a line: in vivo. Conditions: dog, po, 5 mg/kg. This is another data set of the same source.
Data set [5] is described as follows: in vivo. Conditions: simiiformes, plasma, po, 5 mg/kg.
A short description of data set [6]: in vivo. Conditions: rat, po, 5 mg/kg. This is another data set of the same source.
The nature of data set [7]: in vivo. Conditions: dog, po, 5 mg/kg. The source holds these as a separate data set.
A short description of data set [8]: in vivo.
Data set [9] can be described thus: in vivo. Conditions: primates, po, 5 mg/kg.
Data set [10] can be described thus: in vivo. Conditions: rat, po, 20 mg/kg.
A short description of data set [11]: in vivo. Conditions: dog, po, 5 mg/kg. The source holds these as a separate data set.
Data set [12] is described as follows: in vivo. Conditions: dog, po, 5 mg/kg. The source holds these as a separate data set.
Data set [13] is described as follows: in vivo. Conditions: primates, po, 25 mg/kg.
A short description of data set [14]: in vivo. Conditions: simiiformes, po, 25 mg/kg.
A short description of data set [15]: in vivo. Conditions: rat, po, 20 mg/kg. This is another data set of the same source.
The nature of data set [16]: in vivo. Conditions: rat, po, 20 mg/kg. The source holds these as a separate data set.
Data set [17] is described as follows: in vivo. Conditions: dog, po, 5 mg/kg. The source holds these as a separate data set.
Data set [18] is described as follows: in vivo. Conditions: simiiformes, plasma, po, 25 mg/kg.

Each structure is given as a SMILES string.

For orientation: Cmax means the maximum level reached in the sampled fluid or tissue. By bioavailability is commonly meant the share of a dose that reaches the circulation, judged against a reference dose that is usually intravenous. A low value points to little systemic uptake. In general, AUC refers to the area under the concentration-time curve, a measure of exposure. A higher AUC goes with high exposure. For the compound `COCCOc1cc2ncnc(N3CCN(C(=O)Nc4ccc(OC(C)C)cc4)CC3)c2cc1OC`, the Cmax worked out at 636 ng/mL in the data set “in vivo [1]”, 1500 ng/mL in the data set “in vivo [2]” and 762 ng/mL in the data set “in vivo [8]”. For the same compound, the bioavailability turned out to be 72.1% in “in vivo [3]”, 73.6% in the data set “in vivo [4]” and 26.6% in the data set “in vivo [9]”. The AUC in the data set “in vivo [5]” was 1250 ng·h/mL; in the data set “in vivo [6]”, 1580 ng·h/mL; in the data set “in vivo [7]”, 4250 ng·h/mL.

As for `COc1cc2c(N3CCN(C(=O)Nc4ccc(OC(C)C)cc4)CC3)ncnc2cc1OCCCN1CCC(C)CC1`, the bioavailability in the data set “in vivo [10]” is 24.6%; in “in vivo [11]”, 65.1%; in “in vivo [13]”, 40%. Besides, the Cmax in “in vivo [12]” was determined as 113 ng/mL; in the data set “in vivo [14]”, 703 ng/mL; in “in vivo [15]” it was 82.3 ng/mL. Also, the figures for the AUC in “in vivo [16]”, in the data set “in vivo [17]” and in the data set “in vivo [18]” were 1150 ng·h/mL, 696 ng·h/mL and 16100 ng·h/mL, respectively.
